Measurements taken from publication PMC11329519.
Where a chain is given by its changes, count along the chain named. These are yes or no findings as the source states them, for the method shown. In cells and extracts the contact can be indirect. Some results given as binding are weak or reduced against the parent protein; the word gives no strength. For part of these data: Sequences can lack the tags named with a protein. Each block holds one molecule with its values, some of them ahead of it.

What was measured:
[1] = target: T1, human sp-myc-SEMA4D-Q497P (human) (UniProt Q92854); test: co-IP; HEK293T cells co-transfected with the tagged constructs (the methods name Hela cells); Flag lysis buffer (50 mM Tris pH 7.4, 150 mM NaCl, 1 mM EDTA, 1% Triton X100); immunoprecipitation 2 h at 4 C, 5 washes in lysis buffer
T1 sequence: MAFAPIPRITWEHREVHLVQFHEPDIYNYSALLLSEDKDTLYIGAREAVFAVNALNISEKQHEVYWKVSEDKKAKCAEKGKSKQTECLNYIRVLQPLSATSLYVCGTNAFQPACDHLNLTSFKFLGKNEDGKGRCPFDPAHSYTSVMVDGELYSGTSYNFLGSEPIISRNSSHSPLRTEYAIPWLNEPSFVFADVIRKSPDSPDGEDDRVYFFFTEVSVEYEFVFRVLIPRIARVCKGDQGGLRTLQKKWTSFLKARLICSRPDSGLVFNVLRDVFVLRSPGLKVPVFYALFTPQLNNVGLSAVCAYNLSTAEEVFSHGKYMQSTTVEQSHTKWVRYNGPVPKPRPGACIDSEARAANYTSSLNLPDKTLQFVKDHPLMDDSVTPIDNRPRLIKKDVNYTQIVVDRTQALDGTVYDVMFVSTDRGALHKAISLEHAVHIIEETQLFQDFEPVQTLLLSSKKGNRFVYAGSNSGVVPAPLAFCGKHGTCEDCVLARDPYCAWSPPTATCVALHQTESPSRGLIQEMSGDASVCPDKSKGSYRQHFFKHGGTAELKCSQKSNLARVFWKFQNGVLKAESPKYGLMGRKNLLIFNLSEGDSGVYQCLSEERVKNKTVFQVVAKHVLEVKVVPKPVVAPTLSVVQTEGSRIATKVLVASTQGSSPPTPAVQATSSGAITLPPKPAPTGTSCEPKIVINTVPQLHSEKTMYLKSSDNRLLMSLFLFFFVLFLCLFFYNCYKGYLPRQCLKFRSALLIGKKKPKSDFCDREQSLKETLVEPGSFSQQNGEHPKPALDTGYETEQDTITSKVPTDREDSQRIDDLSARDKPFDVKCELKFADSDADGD

[2] = target: T2, human sp-myc-SEMA4D (human) (UniProt Q92854); test: as above
T2 sequence: T1 sequence with P476Q

[3] = target: T3, N-Myc-Sema4D (addgene # 51599) (UniProt O09126); test: as above
T3 sequence: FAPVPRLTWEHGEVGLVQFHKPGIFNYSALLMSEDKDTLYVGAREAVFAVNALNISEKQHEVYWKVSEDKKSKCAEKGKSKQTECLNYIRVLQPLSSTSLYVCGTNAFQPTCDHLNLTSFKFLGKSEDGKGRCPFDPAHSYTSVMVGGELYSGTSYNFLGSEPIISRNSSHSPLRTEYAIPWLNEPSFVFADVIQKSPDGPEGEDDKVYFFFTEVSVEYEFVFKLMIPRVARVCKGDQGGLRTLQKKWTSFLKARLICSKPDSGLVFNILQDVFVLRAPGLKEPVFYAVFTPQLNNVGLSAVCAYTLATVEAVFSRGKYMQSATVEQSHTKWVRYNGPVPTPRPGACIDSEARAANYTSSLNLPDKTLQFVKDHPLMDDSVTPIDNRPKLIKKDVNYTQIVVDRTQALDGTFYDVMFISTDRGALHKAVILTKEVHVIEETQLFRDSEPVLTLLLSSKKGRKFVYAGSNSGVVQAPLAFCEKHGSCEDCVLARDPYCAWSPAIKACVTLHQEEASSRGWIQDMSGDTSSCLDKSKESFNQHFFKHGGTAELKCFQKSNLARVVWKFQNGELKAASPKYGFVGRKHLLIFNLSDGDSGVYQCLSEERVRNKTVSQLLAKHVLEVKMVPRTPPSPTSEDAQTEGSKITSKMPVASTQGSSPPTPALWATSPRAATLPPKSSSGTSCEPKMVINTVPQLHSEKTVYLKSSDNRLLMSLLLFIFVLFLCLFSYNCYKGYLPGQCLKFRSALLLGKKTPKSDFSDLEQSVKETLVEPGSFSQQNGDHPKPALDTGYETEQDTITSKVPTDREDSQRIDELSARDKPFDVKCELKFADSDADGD

N-myc-Sema6A = target: T4, N-myc-Sema6A (UniProt O35464); test: as above
T4 sequence: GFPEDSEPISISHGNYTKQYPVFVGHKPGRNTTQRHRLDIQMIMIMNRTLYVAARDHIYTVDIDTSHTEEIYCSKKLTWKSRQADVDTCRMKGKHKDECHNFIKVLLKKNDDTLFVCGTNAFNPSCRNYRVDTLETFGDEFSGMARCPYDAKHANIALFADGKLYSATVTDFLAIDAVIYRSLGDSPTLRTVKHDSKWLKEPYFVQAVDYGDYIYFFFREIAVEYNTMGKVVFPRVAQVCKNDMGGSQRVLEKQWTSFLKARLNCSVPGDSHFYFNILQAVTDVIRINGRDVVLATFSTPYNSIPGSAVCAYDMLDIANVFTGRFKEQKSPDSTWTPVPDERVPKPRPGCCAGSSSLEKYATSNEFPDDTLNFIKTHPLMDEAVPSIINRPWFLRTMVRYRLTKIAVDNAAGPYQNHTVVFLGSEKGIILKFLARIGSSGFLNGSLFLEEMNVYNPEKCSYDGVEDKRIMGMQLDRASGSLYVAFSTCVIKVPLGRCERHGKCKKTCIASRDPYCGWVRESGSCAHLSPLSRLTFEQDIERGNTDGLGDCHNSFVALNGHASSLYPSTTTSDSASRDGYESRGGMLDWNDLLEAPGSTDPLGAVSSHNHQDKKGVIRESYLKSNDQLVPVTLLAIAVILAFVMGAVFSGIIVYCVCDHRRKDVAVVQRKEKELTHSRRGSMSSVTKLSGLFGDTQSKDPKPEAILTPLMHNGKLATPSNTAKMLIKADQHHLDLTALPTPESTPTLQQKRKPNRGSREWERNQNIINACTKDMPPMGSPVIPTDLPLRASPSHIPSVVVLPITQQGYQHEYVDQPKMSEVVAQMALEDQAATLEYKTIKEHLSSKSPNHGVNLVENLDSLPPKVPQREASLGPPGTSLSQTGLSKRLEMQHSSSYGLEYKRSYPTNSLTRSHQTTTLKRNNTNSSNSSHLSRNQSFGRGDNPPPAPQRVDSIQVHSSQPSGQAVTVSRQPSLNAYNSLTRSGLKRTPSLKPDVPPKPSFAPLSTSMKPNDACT

[4] = target: T5, endogenous Sema4D (mouse (endogenous in E18.5 cortex)) (UniProt O09126); test: co-IP; endogenous proteins; anti-Sema4D antibody on E18.5 mouse cortex lysate; Flag lysis buffer with protease and phosphatase inhibitors
T5 sequence: T3 sequence

[5] = target: T3, N-Myc-Sema4D (addgene # 51599); test: co-IP; competition: co-IP of Sema4D-flag with N-Myc-Sema4D from HEK cells in the presence of increasing amounts (up to 1.5 ug) of HA-Sema7A; Flag lysis buffer

B1: C-terminal GFP-tagged Sema7A (protein, UniProt Q9QUR8 45-646)
chain: QGHSRSGPRISAVWKGQDHVDFSQPEPHTVLFHEPGSFSVWVGGRGKVYHFNFPEGKNASVRTVNIGSTKGSCQDKQDCGNYITLLERRGNGLLVCGTNARKPSCWNLVNDSVVMSLGEMKGYAPFSPDENSLVLFEGDEVYSTIRKQEYNGKIPRFRRIRGESELYTSDTVMQNPQFIKATIVHQDQAYDDKIYYFFREDNPDKNPEAPLNVSRVAQLCRGDQGGESSLSVSKWNTFLKAMLVCSDAATNRNFNRLQDVFLLPDPSGQWRDTRVYGVFSNPWNYSAVCVYSLGDIDRVFRTSSLKGYHMGLPNPRPGMCLPKKQPIPTETFQVADSHPEVAQRVEPMGPLKTPLFHSKYHYQKVVVHRMQASNGETFHVLYLTTDRGTIHKVVESGDQDHSFVFNIMEIQPFHRAAAIQAISLDADRRKLYVTSQWEVSQVPLDMCEVYSGGCHGCLMSRDPYCGWDQDRCVSIYSSQRSVLQSINPAEPHRECPNPKPDEAPLQKVSLARNSRYYLTCPMESRHATYLWRHEENVEQSCEPGHQSPSCILFIENLTARQYGHYRCEAQEGSYLREAQHWELLPEDRALAEQLMGHARALA
binding [3]: binds
binding (N-myc-Sema6A): binds weakly

B3: Sema4D-flag (mouse Sema4D with a C-terminal, cytoplasmic flag tag) (protein, UniProt O09126 24-861)
chain: T3 sequence
binding [5]: binds

Second part, the molecule after the results:

binding [1]: binds
binding [2]: binds
Molecule: sp-flag-hSema4D (from UniProt Q92854 22-862)

binding [4]: binds
B2: endogenous Sema7A (protein, UniProt Q9QUR8 45-646)
chain: B1 chain
